# Library screening results

From ChEMBL document CHEMBL3988442, “University of Dundee, Small-Polar-MMV Screening Library” (2021).

Values are the deposited “Percent Effect”, in %.
The record does not define 0% and 100%; most values in the screen are far below 50% and negative numbers occur (in some assays of this library far below -100).
This is an unselected part of the compounds tested.
A dash means the value is not listed here; it may have been measured.

A: 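Whole-cell assay for inhibitors of Mycobacterium tuberculosis growth, labelled Cornell in the record; the read-out is not stated. The concentration is filed as 10 mM, unlikely as a test dose, so the dose is not known. The record gives no direction; compounds strong in two other growth screens of this library score well above the rest, so higher reads as stronger inhibition. About 53,000 compounds were tested under these conditions; 1.7% (about 900) showed 50% or more at least once.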
B: 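Assay on Mycobacterium tuberculosis, filed only as a heat shock assay from Cornell; the read-out is not stated. The concentration is filed as 10 mM, unlikely as a test dose, so the dose is not known. Direction is inferred from retests: higher values go with stronger inhibition. Of about 69,000 compounds tested this way, about 930 (1.4%) reached 50% or more in at least one test.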

Compound	A	B
O=C(CN1CCCC(Cn2cncn2)C1)Nc1cccnc1 (stereo not given)	-3.605	9.071
CN(C)C[C@@H]1CN(C(=O)c2cc(F)ccc2F)C[C@@H]1CO	15.06	6.358
Cn1cc(C#N)cc1C(=O)Nc1ccc(CN2CCOCC2)cn1	25.06	-6.015
Cc1cnn(CC2CCN(c3cc(C(C)C)nc4ccnn34)CC2)c1	-	17.38
CC(C)c1nccn1-c1nccnc1C1CCCN1Cc1cccnc1 (stereo not given)	-9.727	7.258
COCCOCCCNC(=O)c1cc(Cl)cc2cccnc12	14.25	0.6337
[H][C@@]12CCN(Cc3cc(C)on3)C[C@@]1([H])O[C@H](c1nc(C3CC3)cs1)C2	0.1287	12.48
O=C(c1ccc2c(c1)COC2)N1CCCC(n2cncn2)C1 (stereo not given)	6.732	4.444
O=C1CCSCC(C(=O)N2CCOCC2)N1 (stereo not given)	4.708	-8.297
Cc1csc(CCNC(=O)c2ccc(N(C)C)c(F)c2)n1	2.908	0.1481
COc1ccc(Cc2nnc(SC)o2)cc1OC	17.34	10.38
[H][C@@]12CCN(S(C)(=O)=O)[C@]1([H])CC[C@H](C(=O)NCCOC)O2	-34.34	-35.15
O=C(C1CCCOC1)N(CC(F)F)c1cccc(Cl)c1 (stereo not given)	-50.07	-27.63
CC(C)N1CCC2(CCCN(C(=O)c3cncn3C)C2)CC1.O=C(O)C(F)(F)F	40.33	-16.77
O=C(O)C(F)(F)F.[H][C@@]12CN(C(=O)c3ccoc3C)C[C@@]1([H])N(Cc1cccnc1)C(=O)CO2	14.83	9.8
Cc1nc(CCNC(=O)NC2CCCc3c2cnn3CCO)cs1 (stereo not given)	-30.35	5.505
COc1cc(NC(=O)c2cc(Cl)ccc2F)c(C(=O)N(C)C)cc1OC	-13.11	-6.421
CCOc1ccc(N(C)Cc2nnc(C)o2)cc1	-	13.17
CC(=O)N1Cc2ccccc2CC1C(=O)Nc1cc(C)ccn1 (stereo not given)	22.95	22.5
CC1CCN(C(=O)c2ccn(COc3ccc(F)cc3)n2)CC1	21.63	-15.18
CC1CCN(S(=O)(=O)NCCCn2cncn2)CC1	-	-0.5823
CCc1nc2c(c(N(C)Cc3nncn3CCOC)n1)CCNCC2	18.71	-37.9
CN(CC(=O)NC(C)(C)C)Cc1cccc2c1OCCO2	3.33	-10.11
O=C(O)C(F)(F)F.[H][C@@]12CCN(CC3CC3)[C@@]1([H])CCN2C(=O)c1ccc(F)cc1	4.858	-18.24
COc1ccc(CN2CC(O)CN(C(=O)C3CCC3)CC2=O)cc1 (stereo not given)	4.387	34.62
CC(C)CNC(=O)Nc1cccc(OCC#N)c1	13.08	-36.11
CC(C)N1CCOC(c2cc(CCO)[nH]n2)C1 (stereo not given)	-5.111	10.2
CCc1nc(C)c(C(=O)NCCNc2ncccc2C#N)s1	-	-12.46
Cc1ccccc1C(=O)NCCC(=O)NS(=O)(=O)c1cccnc1	9.774	1.698
NC(=O)C1CN(C(=O)Cc2cccnc2)CCN(C2CCOCC2)C1 (stereo not given)	-14.27	-11.95
Cc1ccc(NC(=O)c2ccc(CC3CC(=O)NC3=O)cc2)cc1O (stereo not given)	18.65	10.81
CNC(=O)C1(c2cnccn2)CCCN1C(=O)c1ccccc1 (stereo not given)	-30.1	-23.19
O=C(c1nc(=O)[nH][nH]1)N1CCCC(c2cc(C(F)(F)F)[nH]n2)C1 (stereo not given)	3.401	-11.46
[H][C@]12C[C@H](C(=O)NCC3CC3)N(C(C)C)[C@@]1([H])CN(Cc1ccco1)C2	20.25	8.112
CCOC(=O)c1sc(NC(=O)CN(C)S(C)(=O)=O)c(C#N)c1C	6.985	12.25
Cc1ccc2c(n1)N(C)CCN(C(=O)C1CC1)C2.O=C(O)C(F)(F)F	13.32	6.798
CC(NCc1ccccn1)c1cc2c(cc1Br)OCCO2 (stereo not given)	6.208	-2.929
Cc1cnc(C(=O)N2CCC3(CCN3Cc3ccc(F)cc3)C2)cn1.O=C(O)C(F)(F)F (stereo not given)	-0.7224	-3.427
CCOc1ncccc1NC(=O)NC1CCCN(c2ncccn2)C1 (stereo not given)	21.56	17.22
CCCC(C)CN1CCC(n2cc(CCCO)nn2)CC1 (stereo not given)	-0.8824	2.134
CCOc1ccc(NC(=O)Cn2cc(I)cn2)cc1	8.752	31.02
CN1CCOC(CNCc2coc(-c3ccc(Cl)cc3)n2)C1 (stereo not given)	-10.72	-23.39
CCN(CC)C(=O)Cn1cc(-c2nc(-c3ccccc3C)no2)nn1	-1.601	1.094
[H][C@]12CC[C@]([H])(CN(Cc3ccc(OC)cc3)C1)N(S(=O)(=O)C1CC1)C2	16.78	-4.175
Cn1ncnc1CNC(=O)N(CCCO)C1CCc2ccccc21 (stereo not given)	-5.065	4.615
COCCc1noc(CNC(C)(CO)C2CCCCC2)n1 (stereo not given)	19.83	10.18
COc1ccc2nc(C3CC3)cc(C(=O)NCCc3nnc[nH]3)c2c1	32.13	-5.062
CC1(C)COCCN1C(=O)Cc1csc(Cc2ccccn2)n1	-37.04	0.1573
CCCn1cnnc1CNC1CCSC1 (stereo not given)	-	-10.53
CCc1ocnc1C(=O)Nc1ccc2ccn(CCN(C)C)c2c1	10.35	-22.44
CS(=O)(=O)NCCNC(=O)c1ccc(OCc2ccccc2)nc1	-20.77	0.533
Cc1cc(C)n(CC(C)CNC(=O)CCc2ccco2)n1 (stereo not given)	-	10.29
NC(=O)C1CCN(CC(=O)N(Cc2ccccc2)Cc2nccs2)CC1	-	-7.646

Once more, the final 4:

| Compound | A | B |
|---|---|---|
| `CCc1ocnc1C(=O)Nc1ccc2ccn(CCN(C)C)c2c1` | 10.35 | -22.44 |
| `CS(=O)(=O)NCCNC(=O)c1ccc(OCc2ccccc2)nc1` | -20.77 | 0.533 |
| `Cc1cc(C)n(CC(C)CNC(=O)CCc2ccco2)n1` (stereo not given) | - | 10.29 |
| `NC(=O)C1CCN(CC(=O)N(Cc2ccccc2)Cc2nccs2)CC1` | - | -7.646 |